Measured values published in PubChem BioAssay AID651640 (Broad Institute, 2012).
Among all 350,000 compounds or so, about 6,000 (1.7%) were called active. Inconclusive means that the source gave no clear call. Such entries were picked first, then a sample of the others. No stated cut-off is given here; in the data, active means CPE inhibition above about 20% (passing the limit was not always enough); inconclusive means no clear call, values can overlap the other calls; tested in BHK-21 cells.

Test: protection of cells from dengue 2 killing – plate reader, single concentration, primary screen (AID 651640);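 further: 0% = median of neutral control wells and 100% = median of positive control wells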
Conditions: DENV2-infected cells, cytopathic effect rescue, at 9.99 µM, hits give high values

SMILES | CPE inhibition
O=C(c1ccccc1)N1CCC2CCN(CCc3ccccc3)CC21 (configuration not stated) | inactive: 2.49%
CN(C[C@@H]1N[C@H](CO)[C@@H]1c1ccc(C2=CCCC2)cc1)S(C)(=O)=O | inactive: 3.94%
CCOC(=O)c1[nH]c(C)c(C(=O)Nc2ccccc2C)c1C | inactive: 2.53%
COc1ccc2c3c([nH]c2c1)[C@@H](CO)N(Cc1ccccc1)CC31CN(S(=O)(=O)c2ccc(C)cc2)C1 | active: 20.3%
COCCNC(=O)[C@H]1[C@H](CO)[C@H]2Cn3c(ccc(-c4ccccc4F)c3=O)[C@H]2N1C(=O)C1CCCC1 | inactive: -4.63%
CC1=C(C(=O)Nc2ccccc2)C(c2ccccc2[N+](=O)[O-])NC(=O)N1 (configuration not stated) | inconclusive: 20.7%
CC(=O)c1c(C)[nH]c(C(=O)NNC(=O)COc2cc(C)cc(C)c2)c1C | active: 32.7%
O=[N+]([O-])c1cccc(/C=N/Nc2ncc(Br)cn2)c1 | inconclusive: 41.1%
O=C(O)CC1(CC(=O)O)Nc2ccccc2SC1=O | inconclusive: 38.7%
CC(C)(C)Nc1nc2cc([N+](=O)[O-])ccc2o1 | inactive: 4.39%
FC(F)(F)c1nnc2ccc(N3CCCCC3)nn12 | inactive: -1.77%
C=CCOc1ccc(C(c2c(O)nc(SC)[nH]c2=O)c2c(O)nc(SC)[nH]c2=O)cc1 | inconclusive: 31%
COc1ccc(CN(C)C[C@@H]2Oc3ccc(NS(=O)(=O)c4cccs4)cc3C(=O)N([C@@H](C)CO)C[C@@H]2C)cc1 | inactive: 2.65%
COCC(=O)N1[C@H](C#N)[C@H](c2ccccc2)[C@H]1CO | inconclusive: 65.9%
CN1Cc2sc(NC(=S)NC(=O)c3ccccc3)c(C#N)c2CC1(C)C | inconclusive: 33%
C/C=C/c1ccc([C@@H]2[C@@H](CO)N3CCCCN(S(=O)(=O)c4cccc(C)c4)C[C@H]23)cc1 | inconclusive: 26.4%
CC(C)C[C@@H]1COCc2cn(nn2)CC[C@H](Cc2ccccc2)C(=O)N1 | inactive: -1.38%
COC(=O)C[C@H]1CC[C@@H]2[C@H](COc3ccc(NC(=O)c4ccccc4OC)cc3C(=O)N2C)O1 | inconclusive: 28%
C=CC[C@H](CC(=O)N(CCO)Cc1ccccc1)C(=O)NCCOC(=O)[C@@H](CC=C)Cc1ccc(F)cc1 | inconclusive: 20.3%
Cc1cc(=O)oc2c(O)c(O)ccc12 | inactive: -10.7%
CN(C)C(CNC(=O)c1ccc(-c2ccccc2)cc1)c1ccccc1 (configuration not stated) | inconclusive: 36.5%
COc1ccc(NC(=O)Nc2ccc3c(c2)C(=O)N([C@H](C)CO)C[C@@H](C)[C@@H](CN(C)C(=O)Nc2ccc(OC)cc2)OCCCC[C@@H](C)O3)cc1 | active: 48.5%

A second format for 2 compounds above:
SMILES	CPE inhibition
CN(C[C@@H]1N[C@H](CO)[C@@H]1c1ccc(C2=CCCC2)cc1)S(C)(=O)=O	inactive: 3.94%
COc1ccc(NC(=O)Nc2ccc3c(c2)C(=O)N([C@H](C)CO)C[C@@H](C)[C@@H](CN(C)C(=O)Nc2ccc(OC)cc2)OCCCC[C@@H](C)O3)cc1	active: 48.5%
